PubChem BioAssay AID1053208, Peter MacCallum Cancer Centre – 2014
Aim: 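Genes whose silencing cuts survival of bone tumour cells only with doxorubicin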 (primary screen). System: mouse osteosarcoma cells, early-passage culture from an engineered mouse model of fibroblastic bone tumour. Knock-down reagent: siRNA pool against mouse genes, 40 nM. Timing: about 120 h (48 h before drug, then 72 h with drug). Conditions: doxorubicin 100 nM for 72 h, roughly 30-40% inhibitory dose. Detection: 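Viability read as ATP luminescence after 72 h of 100 nM doxorubicin or none, duplicate wells averaged, scaled to non-targeting siRNA, then expressed as robust z-scores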. Scale: viability z-score with doxorubicin and doxorubicin viability vs non-targeting: higher = more viable cells under doxorubicin; viability z-score without drug: higher = more viable cells with knock-down alone; z-score of drug to no-drug ratio: higher = less drug sensitisation by knock-down. Call rule: 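a pool counts as active when its viability z-score with doxorubicin is -2 or below and its z-score without drug lies between -2 and 2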.
Here is an unselected part of about 17,000 reagents tested. In the full data, 788 (4.7%) got an active call. 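Calls rest on z-score classes alone; an extra cut-off of viability at most 70% of control was not applied to them.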 The numbers tell different reagents against one gene apart.

Gene	pool no.	combined z-score class	viability z-score with doxorubicin	viability z-score without drug	z-score of drug to no-drug ratio	doxorubicin viability vs non-targeting	call
Shroom1 (shroom family member 1)	1	no change with or without drug	-0.11	0.17	-0.11	0.93	inactive
Rnf4 (ring finger protein 4)	1	no change with or without drug	0.56	0.17	0.56	0.99	inactive
Or5h18 (olfactory receptor family 5 subfamily H member 18)	1	no change with or without drug	-1.57	0.51	-1.8	0.8	inactive
Srek1 (splicing regulatory glutamine/lysine-rich protein 1)	1	no change with or without drug	-0.56	-1.52	0.56	0.89	inactive
Psg17 (pregnancy specific beta-1-glycoprotein 17)	1	no change with or without drug	-0.45	-1.18	0.45	0.9	inactive
Pex7 (peroxisomal biogenesis factor 7)	1	no change with or without drug	1.8	1.18	1.12	1.1	inactive
Phyh (phytanoyl-CoA hydroxylase)	1	no change with or without drug	-0.79	0	-0.67	0.87	inactive
Aatk (apoptosis-associated tyrosine kinase)	1	no change with or without drug	0.22	0.84	-0.22	0.96	inactive
Mgat1 (mannoside acetylglucosaminyltransferase 1)	1	no change with or without drug	0.11	0.84	-0.34	0.95	inactive
Dcpp1 (demilune cell and parotid protein 1)	1	no change with or without drug	1.46	0.51	1.24	1.07	inactive
Dcpp1 (demilune cell and parotid protein 1)	2	low cell count with and without drug	-2.14	-2.7	-0.34	0.75	inactive
Gbp4 (guanylate binding protein 4)	1	no change with or without drug	-0.22	-1.01	0.56	0.92	inactive
Krtap13-20 (keratin associated protein 13-20)	1	no change with or without drug	1.69	1.69	0.67	1.09	inactive
Alg8 (ALG8 alpha-1,3-glucosyltransferase)	1	no change with or without drug	0	-0.17	0.22	0.94	inactive
Irf9 (interferon regulatory factor 9)	1	no change with or without drug	0.34	0.67	0	0.97	inactive
Anxa9 (annexin A9)	1	no change with or without drug	0.34	0.34	0.22	0.97	inactive
Mrgprx2 (MAS-related GPR, member X2)	1	high cell count with doxorubicin only	2.59	0	2.81	1.17	inactive
Or5p72 (olfactory receptor family 5 subfamily P member 72)	1	no change with or without drug	-1.8	-1.85	-0.56	0.78	inactive
Nol3 (nucleolar protein 3 (apoptosis repressor with CARD domain))	1	no change with or without drug	0.9	1.18	0.22	1.02	inactive
1700029M20Rik (RIKEN cDNA 1700029M20 gene)	1	low cell count with doxorubicin only	-3.15	0.84	-3.6	0.66	active
Mrpl52 (mitochondrial ribosomal protein L52)	1	low cell count with and without drug	-2.25	-2.53	-0.67	0.74	inactive
Aldh2 (aldehyde dehydrogenase 2, mitochondrial)	1	no change with or without drug	-0.45	0.17	-0.45	0.9	inactive
Ar (androgen receptor)	1	no change with or without drug	0.45	0.84	0	0.98	inactive
Dyrk1b	1	no change with or without drug	-0.45	-1.85	1.01	0.9	inactive
Ago4 (argonaute RISC catalytic subunit 4)	1	no change with or without drug	-1.8	0.67	-2.14	0.78	inactive
Mrgprb4 (MAS-related GPR, member B4)	1	no change with or without drug	0.22	0.51	0	0.96	inactive
Erlec1 (endoplasmic reticulum lectin 1)	1	high cell count without drug only	-1.69	2.53	-2.92	0.79	inactive
Samd13 (sterile alpha motif domain containing 13)	1	no change with or without drug	-1.57	1.18	-2.25	0.8	inactive
Or10h1 (olfactory receptor family 10 subfamily H member 1)	1	no change with or without drug	0.67	-0.84	1.46	1	inactive
F2r (coagulation factor II thrombin receptor)	1	no change with or without drug	-0.22	-0.17	0	0.92	inactive
Ube2d2a (ubiquitin-conjugating enzyme E2D 2A)	1	no change with or without drug	-1.12	-0.67	-0.67	0.84	inactive
Zfp869 (zinc finger protein 869)	1	no change with or without drug	0.34	1.01	-0.22	0.97	inactive
Ddx27 (DEAD box helicase 27)	1	no change with or without drug	-0.22	-0.17	0	0.92	inactive
Sox8 (SRY (sex determining region Y)-box 8)	1	no change with or without drug	0.22	0	0.34	0.96	inactive
A430033K04Rik (RIKEN cDNA A430033K04 gene)	1	no change with or without drug	-0.45	0.84	-0.9	0.9	inactive
AL022832	1	no change with or without drug	-1.12	-0.51	-0.79	0.84	inactive
Atp6v0d1 (ATPase, H+ transporting, lysosomal V0 subunit D1)	1	no change with or without drug	-0.11	-0.17	0.11	0.93	inactive
Best2 (bestrophin 2)	1	low cell count with doxorubicin only	-2.25	0.34	-2.47	0.74	active
Nlrp9b (NLR family, pyrin domain containing 9B)	1	no change with or without drug	0.22	1.52	-0.67	0.96	inactive
Cdh6 (cadherin 6)	1	no change with or without drug	-1.24	-0.51	-0.9	0.83	inactive
Heatr5b (HEAT repeat containing 5B)	1	no change with or without drug	0.22	-0.17	0.45	0.96	inactive

Continued, starting with the last 8 of the part before.
Gene	pool no.	combined z-score class	viability z-score with doxorubicin	viability z-score without drug	z-score of drug to no-drug ratio	doxorubicin viability vs non-targeting	call
Sox8 (SRY (sex determining region Y)-box 8)	1	no change with or without drug	0.22	0	0.34	0.96	inactive
A430033K04Rik (RIKEN cDNA A430033K04 gene)	1	no change with or without drug	-0.45	0.84	-0.9	0.9	inactive
AL022832	1	no change with or without drug	-1.12	-0.51	-0.79	0.84	inactive
Atp6v0d1 (ATPase, H+ transporting, lysosomal V0 subunit D1)	1	no change with or without drug	-0.11	-0.17	0.11	0.93	inactive
Best2 (bestrophin 2)	1	low cell count with doxorubicin only	-2.25	0.34	-2.47	0.74	active
Nlrp9b (NLR family, pyrin domain containing 9B)	1	no change with or without drug	0.22	1.52	-0.67	0.96	inactive
Cdh6 (cadherin 6)	1	no change with or without drug	-1.24	-0.51	-0.9	0.83	inactive
Heatr5b (HEAT repeat containing 5B)	1	no change with or without drug	0.22	-0.17	0.45	0.96	inactive
Or7a39 (olfactory receptor family 7 subfamily A member 39)	1	low cell count without drug only	-1.35	-3.2	1.12	0.82	inactive
Syt1 (synaptotagmin I)	1	no change with or without drug	1.35	1.69	0.34	1.06	inactive
Cog1 (component of oligomeric golgi complex 1)	1	no change with or without drug	0.9	1.35	0.11	1.02	inactive
Sox3 (SRY (sex determining region Y)-box 3)	1	no change with or without drug	-1.8	-1.85	-0.56	0.78	inactive
Iqcb1 (IQ calmodulin-binding motif containing 1)	1	no change with or without drug	-0.9	-0.17	-0.79	0.86	inactive
Ceacam1 (CEA cell adhesion molecule 1)	1	no change with or without drug	-1.12	-1.52	0	0.84	inactive
Krtap9-1 (keratin associated protein 9-1)	1	low cell count with doxorubicin only	-2.02	-1.18	-1.35	0.76	active
Slc26a5	1	no change with or without drug	1.01	-0.51	1.57	1.03	inactive
Fndc10 (fibronectin type III domain containing 10)	1	no change with or without drug	-0.45	-1.18	0.45	0.9	inactive
Ptgdr2 (prostaglandin D2 receptor 2)	1	no change with or without drug	-1.57	-0.17	-1.46	0.8	inactive
Pdxp (pyridoxal (pyridoxine, vitamin B6) phosphatase)	1	no change with or without drug	-0.45	0.17	-0.45	0.9	inactive
Hcfc1r1 (host cell factor C1 regulator 1 (XPO1-dependent))	1	no change with or without drug	-0.22	0.17	-0.22	0.92	inactive
Entpd6 (ectonucleoside triphosphate diphosphohydrolase 6)	1	no change with or without drug	0.34	0.84	-0.11	0.97	inactive
Clptm1l (CLPTM1-like)	1	no change with or without drug	0.45	-0.34	0.79	0.98	inactive
Olfr900 (olfactory receptor 900)	1	high cell count without drug only	-0.22	2.19	-1.46	0.92	inactive
Klrb1f (killer cell lectin-like receptor subfamily B member 1F)	1	no change with or without drug	-0.9	-1.01	-0.11	0.86	inactive
Or7g22 (olfactory receptor family 7 subfamily G member 22)	1	low cell count with doxorubicin only	-2.36	-0.17	-2.25	0.73	active
Fga (fibrinogen alpha chain)	1	no change with or without drug	-0.56	1.52	-1.35	0.89	inactive
Padi2 (peptidyl arginine deiminase, type II)	1	no change with or without drug	-0.67	-0.84	0	0.88	inactive
Rprd1b (regulation of nuclear pre-mRNA domain containing 1B)	1	high cell count with doxorubicin only	2.25	1.35	1.46	1.14	inactive
1700029F12Rik (RIKEN cDNA 1700029F12 gene)	1	no change with or without drug	0.67	-1.18	1.8	1	inactive
Plcb4 (phospholipase C, beta 4)	1	high cell count with doxorubicin only	2.02	0.84	1.57	1.12	inactive
